Measurements reported in patent US20120329784A1, “COMPOUNDS AND METHODS” (priority 2010, published 2012).
Where a name gives a salt, the structure may show the parent alone. Some results were stated once for a whole list of compounds, not compound by compound.

The compounds below were run against T1, Full length human TNNI3K (hTNNI3K) (Homo sapiens, UniProt Q59H18) (assay: Fluorescent polarization assay of compound inhibition on hTNNI3K ATP binding (Biological Assay Method I)). Settings: mean of a minimum of 2 experiments; displacement of fluorescent ligand from hTNNI3K ATP binding pocket; 60 min at rt.
T1 construct: His-MBP-TEV-Full length human TNNI3K (hTNNI3K); His (N); MBP (N); TEV cleavage site (N); made in house; host or cells: baculovirus expression system (printed 'Baculokinase system')
T1 sequence (Q59H18 1-835): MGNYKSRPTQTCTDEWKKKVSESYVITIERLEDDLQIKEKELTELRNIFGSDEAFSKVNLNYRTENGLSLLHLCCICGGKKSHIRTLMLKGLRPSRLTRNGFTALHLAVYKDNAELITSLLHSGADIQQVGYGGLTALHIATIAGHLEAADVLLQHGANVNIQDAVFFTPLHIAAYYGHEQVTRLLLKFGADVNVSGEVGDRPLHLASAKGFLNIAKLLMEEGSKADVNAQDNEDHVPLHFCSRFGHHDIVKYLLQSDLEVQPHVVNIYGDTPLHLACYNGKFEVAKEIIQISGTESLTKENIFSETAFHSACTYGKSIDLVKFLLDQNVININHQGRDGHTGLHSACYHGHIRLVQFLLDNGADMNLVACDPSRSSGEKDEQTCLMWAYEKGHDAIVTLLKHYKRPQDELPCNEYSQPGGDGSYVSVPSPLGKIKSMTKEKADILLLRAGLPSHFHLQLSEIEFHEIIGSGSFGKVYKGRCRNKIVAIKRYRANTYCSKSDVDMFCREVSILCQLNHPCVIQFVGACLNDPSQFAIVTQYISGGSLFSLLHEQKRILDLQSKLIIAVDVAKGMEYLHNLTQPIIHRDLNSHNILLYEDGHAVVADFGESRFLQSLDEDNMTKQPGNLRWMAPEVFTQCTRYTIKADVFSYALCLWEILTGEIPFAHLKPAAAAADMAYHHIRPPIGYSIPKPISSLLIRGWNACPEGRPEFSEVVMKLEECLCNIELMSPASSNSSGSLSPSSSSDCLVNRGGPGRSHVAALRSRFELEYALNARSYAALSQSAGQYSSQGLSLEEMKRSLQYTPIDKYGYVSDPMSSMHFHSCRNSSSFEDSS

pXC50, ≥ 6.0:
CNS(=O)(=O)c1ccc(OC2CCCC2)c(Nc2cc(Nc3ccc(Cl)cc3)ncn2)c1 [Example 17, 3-({6-[(4-chlorophenyl)amino]-4-pyrimidinyl}amino)-4-(cyclopentyloxy)-N-methylbenzenesulfonamide trifluoroacetate]
CNS(=O)(=O)c1cccc(Nc2cc(Nc3ccc(C(F)(F)F)c(F)c3)ncn2)c1 [Example 102, 3-[(6-{[3-fluoro-4-(trifluoromethyl)phenyl]amino}-4-pyrimidinyl)amino]-N-methylbenzenesulfonamide trifluoroacetamide]
CNS(=O)(=O)c1cccc(Nc2cc(Nc3cccc(-c4ccc(N5CCOCC5)cc4)c3)ncn2)c1 [Example 333, N-methyl-3-[(6-{[4′-(4-morpholinyl)-3-biphenylyl]amino}-4-pyrimidinyl)amino]benzenesulfonamide]
CNS(=O)(=O)c1cccc(Nc2cc(Nc3ccc(F)cc3)ncn2)c1 [Example 212, 3-({6-[(4-fluorophenyl)amino]-4-pyrimidinyl}amino)-N-methylbenzenesulfonamide trifluoroacetate]
CCCOc1ccc(S(=O)(=O)NC)cc1Nc1cc(Nc2ccc(Cl)cc2)ncn1 [Example 8, 3-({6-[(4-chlorophenyl)amino]-4-pyrimidinyl}amino)-N-methyl-4-(propyloxy)benzenesulfonamide trifluoroacetate]
CNS(=O)(=O)c1cccc(Nc2cc(Nc3ccc(C(=O)OC(C)C)cc3)ncn2)c1 [Example 89, 1-methylethyl 4-{[6-({3-[(methylamino)sulfonyl]phenyl}amino)-4-pyrimidinyl]amino}benzoate trifluoroacetate]
CNS(=O)(=O)c1ccc(OCC(F)(F)F)c(Nc2cc(Nc3ncc(Cl)cc3F)ncn2)c1 [Example 296, 3-({6-[(5-chloro-3-fluoro-2-]
CNS(=O)(=O)c1cccc(Nc2cc(Nc3ccc4c(c3)NC(=O)C4)ncn2)c1 [Example 75, N-methyl-3-({6-[(2-oxo-2,3-dihydro-1H-indol-6-yl)amino]-4-pyrimidinyl}amino)benzenesulfonamide trifluoroacetate]
CNS(=O)(=O)c1cccc(Nc2cc(Nc3ccc(C(=O)N4CCCC4)cc3)ncn2)c1 [Example 362, N-methyl-3-[(6-{[4-(1-pyrrolidinylcarbonyl)phenyl]amino}-pyrimidinyl)amino]benzenesulfonamide]
C#Cc1cccc(Nc2cc(Nc3cc(S(=O)(=O)NC)ccc3SC)ncn2)c1 [Example 151, 3-[6-(3-ethynyl-phenylamino)-pyrimidin-4-ylamino]-N-methyl-4-methylsulfanyl-benzenesulfonamide trifluoroacetate]
CNS(=O)(=O)c1cccc(Nc2cc(Nc3ccc(C(=O)N4CCOCC4)cc3)ncn2)c1 [Example 78, N-methyl-3-[(6-{[4-(4-morpholinylcarbonyl)phenyl]amino}-4-pyrimidinyl)amino]benzenesulfonamide]
CNS(=O)(=O)c1ccc(SC)c(Nc2cc(Nc3ccc(CC#N)cc3)ncn2)c1 [Example 165, 3-[6-(4-cyanomethyl-phenylamino)-pyrimidin-4-ylamino]-N-methyl-4-methylsulfanyl-benzenesulfonamide trifluoroacetate]
CNS(=O)(=O)c1cccc(Nc2cc(Nc3ccc(SC)cc3)ncn2)c1 [Example 243, N-methyl-3-[(6-{[4-(methylthio)phenyl]amino}-4-pyrimidinyl)amino]benzenesulfonamide trifluoroacetate]
CNS(=O)(=O)c1ccc(OC)c(Nc2cc(Nc3cc(C)cc(Br)c3)ncn2)c1 [Example 264, 3-({6-[(3-bromo-5-methylphenyl)amino]-4-pyrimidinyl}amino)-N-methyl-4-(methyloxy)benzenesulfonamide trifluoroacetate]
CNS(=O)(=O)c1ccc(SC)c(Nc2cc(Nc3ccc(C#N)cc3)ncn2)c1 [Example 142, 3-[6-(4-cyano-phenylamino)-pyrimidin-4-ylamino]-N-methyl-4-methylsulfanyl-benzenesulfonamide trifluoroacetate]
CNS(=O)(=O)c1ccc(SC)c(Nc2cc(Nc3ccc4[nH]ncc4c3)ncn2)c1 [Example 159, 3-[6-(1H-indazol-5-ylamino)-pyrimidin-4-ylamino]-N-methyl-4-methylsulfanyl-benzenesulfonamide trifluoroacetate]
CNS(=O)(=O)c1ccc(S(=O)(=O)C(C)(C)C)c(Nc2cc(Nc3ccc(Cl)cn3)ncn2)c1 [Example 311, 4-(tert-butylsulfonyl)-3-(6-(5-chloropyridin-2-ylamino)pyrimidin-4-ylamino)-N-methylbenzenesulfonamide trifluoroacetate]
CNS(=O)(=O)c1ccc(N2CCCC(F)(F)C2)c(Nc2cc(Nc3ccc(Cl)cc3)ncn2)c1 [Example 25, 3-({6-[(4-chlorophenyl)amino]-4-pyrimidinyl}amino)-4-(3,3-difluoro-1-piperidinyl)-N-methylbenzenesulfonamide trifluoroacetate]
CNS(=O)(=O)c1ccc(OC(C)C)c(Nc2cc(Nc3ccc(Cl)cc3)ncn2)c1 [Example 250, 3-({6-[(4-chlorophenyl)amino]-4-pyrimidinyl}amino)-N-methyl-4-[(1-methylethyl)oxy]benzenesulfonamide trifluoroacetate]
CNS(=O)(=O)c1ccc(SCC(C)C)c(Nc2cc(Nc3ccc(C(C)C)cc3)ncn2)c1 [Example 117, 4-(isobutylthio)-3-(6-(4-isopropylphenylamino)pyrimidin-4-ylamino)-N-methylbenzenesulfonamide trifluoroacetate]
CNS(=O)(=O)c1cccc(Nc2cc(Nc3nc(C)co3)ncn2)c1 [Example 284, N-methyl-3-({6-[(4-methyl-1,3-oxazol-2-yl)amino]-4-pyrimidinyl}amino)benzenesulfonamide]
CNS(=O)(=O)c1cccc(Nc2cc(Nc3ccc4c(C)cc(=O)[nH]c4c3)ncn2)c1 [Example 189, N-methyl-3-[6-(4-methyl-2-oxo-1,2-dihydro-quinolin-7-ylamino)-pyrimidin-4-ylamino]-benzenesulfonamide trifluoroacetate]
CNS(=O)(=O)c1cccc(Nc2cc(Nc3ccc(S(C)(=O)=O)cc3)ncn2)c1 [Example 70, N-methyl-3-[(6-{[4-(methylsulfonyl)phenyl]amino}-4-pyrimidinyl)amino]benzenesulfonamide trifluoroacetate]
CNS(=O)(=O)c1ccc(S(C)(=O)=O)c(Nc2cc(Nc3cc(C)cc(Br)c3)ncn2)c1 [Example 193, 3-(6-(3-bromo-5-methylphenylamino)pyrimidin-4-ylamino)-N-methyl-4-(methylsulfonyl)benzenesulfonamide]
CNS(=O)(=O)c1ccc(SC)c(Nc2cc(Nc3ccc(C(=O)N(C)CCN(C)C)cc3)ncn2)c1 [Example 369, N-[2-(dimethylamino)ethyl]-N-methyl-4-[(6-{[5-[(methylamino)sulfonyl]-2-(methylthio)phenyl]amino}-4-pyrimidinyl)amino]benzamide trifluoroacetate]
CNS(=O)(=O)c1cccc(Nc2cc(Nc3ccc4ncccc4c3)ncn2)c1 [Example 240, N-methyl-3-{[6-(6-quinolinylamino)-4-pyrimidinyl]amino}benzenesulfonamide]
CNS(=O)(=O)c1cccc(Nc2cc(Nc3cccc(NC(C)=O)c3)ncn2)c1 [Example 54, N-(3-{[6-({3-[(methylamino)sulfonyl]phenyl}amino)-4-pyrimidinyl]amino}phenyl)acetamide trifluoroacetate]
CNS(=O)(=O)c1ccc(OCC(F)(F)F)c(Nc2cc(Nc3ccc(CC(F)(F)F)cc3)ncn2)c1 [Example 37, N-methyl-4-[(2,2,2-trifluoroethyl)oxy]-3-[(6-{[4-(2,2,2-trifluoroethyl)phenyl]amino}-4-pyrimidinyl)amino]benzenesulfonamide trifluoroacetate]
CNS(=O)(=O)c1ccc(OC(C)C(F)(F)F)c(Nc2cc(Nc3ccc(C(F)(F)F)cn3)ncn2)c1 (centres unmarked) [Example 309, N-methyl-4-[(2,2,2-trifluoro-1-methylethyl)oxy]-3-[(6-{[5-(trifluoromethyl)-2-pyridinyl]amino}-4-pyrimidinyl)amino]benzenesulfonamide]
